# “Also recorded” adds a separate entry of the source. Part of at least one peptide drawing is inferred or uncertain, most often the ends. No end group written: not given here.
# What was measured:
# [1] = tested on: Plasmodium berghei Anka (PbA) infected mice; assay: Rodent model of cerebral malaria; type: in vivo, mouse; details: CBA/J mice; 2.6 μg/kg i.p. on days 4, 5 and 6; p<0.005 log-rank; FIG. 12
# [2] = tested on: Cisplatinum (CDDT) treated rats; assay: Cisplatinum-induced neuropathy and nephropathy; type: in vivo, rat; details: CDDT 2 mg/kg twice weekly for 5 weeks; peptide 0.4 μg/kg-bw i.p. three times per week; FIG. 9A
Sequence,survival in experimental cerebral malaria [1],hot plate latency [2]
RYLLEAKEAENITTGC [Peptide F],prolonged survival; also recorded: protects mice from experimental cerebral malaria,
QEQLERALNSS [Peptide G],,normal hot plate latency; also recorded: improved results

# Source: patent US10100096B2, “Tissue protective peptides and uses thereof” (Araim Pharmaceuticals, Inc., priority 2005, dated 2018)
